Measurements from PubChem BioAssay AID2417 (National Center for Advancing Translational Sciences (NCATS), 2010).
Out of some 140,000 compounds screened, about 4,300 (3.1%) were called active. The shares of active, inactive and inconclusive entries below differ from those in the screen.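 How the source made its calls: active means readout at or below -70, meaning at least 70% loss of cells showing the perinucleolar compartment, a nuclear body marking cancer cells; inconclusive means readout between -30 and a set limit; inactive means the rest.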

assay: High Content Assay for Compounds that inhibit the Assembly of the Perinucleolar Compartment; details: PC3M PTB-GFP, PNC prevalence imaging, 16 h; at 10 µM; stronger effect = lower value;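 further: plate controls were DMSO wells for no effect and camptothecin positive control wells for full effect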
Procedure, shortened: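 Read-out is percentage of cells bearing a perinucleolar compartment, from automated 20x imaging of fixed, Hoechst-stained PC3M PTB-GFP cells. Cells were seeded 4 h, then exposed 16 h to compound (23 nl of library stock) in duplicate plates.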

| SMILES | activity change (PNC), negative = inhibition |
| --- | --- |
| Cc1nc(NC(N)=S)sc1C(=O)Nc1ccccc1 | inactive: 42.4% |
| O=C(c1ccccc1)N1CCCc2ccccc21 | inactive: 18.1% |
| Cc1ccc(C(C(=O)NCc2ccco2)N(Cc2ccco2)C(=O)CNC(=O)c2ccco2)cc1 (stereo not given) | inconclusive: -34.1% |
| Cc1cccc(NC(=O)CN(c2ccc(C(C)C)cc2)S(=O)(=O)c2c(C)nn(C)c2C)n1 | inconclusive: -59.8% |
| O=C(Cn1cc[n+](CC(=O)c2ccccc2)c1)c1ccccc1 | inconclusive: -71% |
| C/C(=N\NC(=O)CNC(=O)c1ccc2c(c1)OCO2)c1ccco1 | inconclusive: -49.4% |
| Cc1oc(C(=O)O)cc1CSCc1cc(C(=O)O)c(C)o1 | inconclusive: -70.2% |
| COc1ccc(CN=C2NC(=O)CC(C(=O)Nc3cc(C)cc(C)c3)S2)cc1 (stereo not given) | active: -83.9% |
| Cc1ccn2cc(CCNC(=O)c3ccc(Br)o3)nc2c1 | inconclusive: -43.6% |
| CNc1nc2ccccc2n1N | inconclusive: -39% |
| CCn1c(=N)n(CC(=O)C23CC4CC(CC(C4)C2)C3)c2ccccc21 | inconclusive: -40.9% |
| CCOc1ccc(-c2nnn(CC(=O)N3CCCC3)n2)cc1OCC | inconclusive: -35.6% |
| COCCn1c(Cc2ccccc2)nnc1SCC(=O)Nc1cc(C)on1 | inactive: 15.7% |
| CCOC(=O)c1[nH]c(C)c(C(=O)OCC(=O)NC(=O)NC(C)(C)C)c1C | inconclusive: -53.8% |
| O=C(OCc1csc(Nc2ccccc2)n1)c1ccc(Cl)cc1 | inactive: 14.4% |
| COCCCNC(=O)c1ccc(N2CCCC2)c(NS(=O)(=O)c2ccc(C)cc2)c1 | inactive: 7.26% |
| O=C(Cc1ccccc1)Nc1nnc(-c2cccc([N+](=O)[O-])c2)s1 | inconclusive: -36.3% |
| CC(C)c1ccc(NCCC(=O)c2ccc(Br)cc2)cc1 | inconclusive: -31.7% |
| Nc1cc(C(=O)O)ccc1N1CCCCC1 | active: -100% |
| COc1ccc(Cn2nnnc2C(c2cccs2)N2CCSCC2)cc1 (stereo not given) | inconclusive: -37% |
| COC(=O)Nc1ccc(S(=O)(=O)Nc2ccc(C)cc2)cc1 | inactive: 2.01% |
| CC1(C)CC(=O)C(C=NCCN2CCOCC2)=C(O)C1 | active: -96.3% |
| CCC(C)NCCCOc1ccc(Cl)cc1C(C)(C)C (stereo not given) | inconclusive: -48.4% |

| SMILES | activity change (PNC), negative = inhibition |
| --- | --- |
| COCCNC(=O)c1sc2ncn(CC(=O)N3CCCCC3)c(=O)c2c1C | inactive: -14.6% |
| COc1cc(S(=O)(=O)N2CCC(C(N)=O)CC2)c(C)cc1C | inconclusive: -41.3% |
| Clc1ccccc1CN(Cc1ccco1)Cc1nnnn1C1CCCC1 | inconclusive: -34.3% |
| Clc1ccc2c(c1)C(C1=NCCN1)c1ccccc1CS2 (stereo not given) | inconclusive: -71.3% |
| Cc1ccc(S(=O)(=O)Cn2nnnc2C(C(C)C)N2CCN(Cc3ccco3)CC2)cc1 (stereo not given) | inconclusive: -32.1% |
| COc1ccc(NC(=S)NNC(=O)C(C)n2nc(C)c([N+](=O)[O-])c2C)cc1 (stereo not given) | inconclusive: -44.9% |
| Cc1cc(NC(=O)CSc2nnc(-c3ccc(S(=O)(=O)N4CCCC4)cc3)n2C)no1 | inconclusive: -37.7% |
| Cc1cc(C(C#N)c2ccccc2)n2ncnc2n1 (stereo not given) | inactive: -21.4% |
| CC(OC(=O)Cc1coc2ccc3ccccc3c12)C(=O)Nc1ncc(Cl)cc1Cl (stereo not given) | inconclusive: -33% |
| Nc1ccccc1SCc1cn2ccccc2n1 | inconclusive: -56.7% |
| CCOC(=O)c1c(C)n(C)c2ccc(OC)c(NC(=O)CN3CCN(C(=O)c4ccco4)CC3)c12 | inactive: -10.8% |
| COc1ccc(-c2cc(-c3ccc(OC)c(OC)c3)n[nH]2)c(O)c1 | inactive: 3.98% |
| CC(C)(C)c1ccc(C(=O)Oc2ccc3c(c2)OCC3=O)cc1 | inconclusive: -37.4% |
| COCCn1nc2cc(C(=O)NCC34CC5CC(CC(C5)C3)C4)ccc2c1OC | inactive: 4.6% |
| Nc1ccc(Oc2ccc3nc(-c4ccccc4)c(-c4ccccc4)nc3c2)cc1 | inactive: 37.1% |
| O=C(Nc1ccccc1N1CCOCC1)c1cccc([N+](=O)[O-])c1 | inactive: 3.24% |
| COc1ccccc1NC(=O)C1=C(C)NC2=C(C(=O)CC(c3ccc(OC)c(OC)c3)C2)C1c1coc2ccccc2c1=O (stereo not given) | inactive: -27.4% |
| O=C(NCCn1cc(SCC(=O)N2CCOCC2)c2ccccc21)c1ccccc1 | inconclusive: -65.5% |
| N#Cc1nc(-c2ccco2)oc1NCc1cccnc1 | inactive: 36.1% |
| C=CCn1c(=O)c2c(nc3n2CCN3c2cccc(Cl)c2C)n(C)c1=O | inconclusive: -47.6% |
| COc1ccc(NCc2nc3ccccc3n2CCOc2ccc(C)cc2)cc1 | active: -113% |
| CCOc1ccc(NC(=O)COC(=O)Cn2cnnn2)cc1OCC | inconclusive: -36.6% |
| COC(=O)c1c(NC(=O)CN2CCCC(C)C2)c2c(C)cccc2n1C (stereo not given) | inactive: 42.5% |

| SMILES | activity change (PNC), negative = inhibition |
| --- | --- |
| CCN(c1ccccc1)S(=O)(=O)c1ccc(Cl)c(C(=O)OCC(=O)c2[nH]c(C)c(C(C)=O)c2C)c1 | inconclusive: -40.1% |
| Cc1ccc2c(c1)N(C(=O)CCC(=O)O)CCO2 | inactive: 14.3% |
| COc1ccc(-n2nc(C(=O)NCC(=O)NCc3ccc(F)cc3)c3ccccc3c2=O)c(OC)c1 | inconclusive: -51.6% |
| CCOC(=O)c1c(NC(=O)C2c3ccccc3Oc3ccccc32)sc(C(C)=O)c1C | inconclusive: -37.5% |
| CCCc1nn(C)c(C(=O)Nc2cccc3ccccc23)c1Cl | inconclusive: -40.7% |
| CCN(CC)S(=O)(=O)c1cc(C(=O)OCC(=O)Nc2c(F)cccc2F)ccc1F | inconclusive: -50.1% |
| CC(=O)N1CCCc2cc(S(=O)(=O)NCCC3=CCCCC3)ccc21 | active: -86.1% |
| N#C/C(=C\c1ccc(OCc2ccc(C(=O)O)cc2)cc1)C(=O)N1CCOCC1 | inconclusive: -64.5% |
| COC(=O)c1ccc(C)c(NS(=O)(=O)c2ccc(C)c([N+](=O)[O-])c2)c1 | inactive: 12.7% |
| CCCCn1nc(C(=O)N2CCc3ccccc32)c2ccccc2c1=O | inconclusive: -55.9% |
| Cc1[nH]c(-c2ccco2)nc1C(=O)O | inactive: 50.2% |
| COc1ccc(S(=O)(=O)N(C(=O)c2ccco2)c2cc3sc(=O)oc3c3ccccc23)cc1 | inconclusive: -44.1% |
| CCCCc1nn2c(N)c(/C=C3\C=Nc4ccccc43)c(=O)nc2s1 | inconclusive: -66.6% |
| CCCNC(=O)c1c(N)n(-c2cccc(OC)c2)c2nc3ccccc3nc12 | inconclusive: -30.6% |
| O=C1c2ccccc2C(=O)c2c1ccc1c(=O)n(-c3ccccc3)[nH]c21 | inconclusive: -55.7% |
| COC(=O)C(C)NC(=O)c1ccc(C(C)(C)C)cc1 (stereo not given) | inconclusive: -32% |
| Cn1c(=O)c(-c2ccccc2N)nc2ccccc21 | inconclusive: -75.9% |
| CC1Cc2ccccc2N1CC(=O)NCc1ccccc1Cl (stereo not given) | inconclusive: -56.7% |
| COC(=O)[C@H](CC(C)C)NC(=O)N1CCN(c2cccc(C(F)(F)F)c2)CC1 | inactive: 11.4% |
| COc1ccc(CN/C=C2\CCCCC2=O)cc1 | inconclusive: -48.9% |
| CC(=O)Nc1nonc1-c1nc2ccccc2n1Cc1ccccc1 | inactive: 22.3% |
| COC(=O)CNC(c1ccccc1)c1cc(C)ccc1NC(=O)c1cccc(Cl)c1 (stereo not given) | inconclusive: -40.4% |
| COc1ccc(NCc2nnc(SCC(=O)NCc3ccccc3)n2-c2ccccc2OC)cc1 | active: -106% |

| SMILES | activity change (PNC), negative = inhibition |
| --- | --- |
| CCCOc1ccccc1C1CC(=O)Nc2cc3c(cc21)OCCO3 (stereo not given) | active: -116% |
| Cc1ccc(C(=O)Nc2cccc(C(=O)O)c2)cc1 | inactive: 38% |
| COc1ccc(-c2cn(-c3ccc(OC)cc3)c(=S)[nH]2)cc1 | inconclusive: -33.1% |
| C#CC(C)(CC)NC(=O)Cn1nnc(-c2ccc(S(C)(=O)=O)cc2)n1 (stereo not given) | inactive: 2.91% |
| Cc1ccc2occ(C3N[C@H](C(=O)O)CS3)c(=O)c2c1 (stereo not given in full) | inactive: -22.3% |
| Cc1cc(C(C)(C)C)oc1C(=O)N(CC(=O)NC1CCCC1)Cc1ccccc1 | inconclusive: -49.4% |
| CC(NC(=O)C(=O)NCCC1=CCCCC1)c1ccccc1 (stereo not given) | inactive: 49.4% |
| COc1ccc(C2(C(=O)NCCN3CCOCC3)CCOCC2)cc1 | inconclusive: -74.4% |
| COc1ccc(C2=NOC3(CC(=O)N(c4ccc(C)cc4)C3=O)C2)cc1 (stereo not given) | inconclusive: -42.6% |
| CC(=O)Nc1ccc(S(=O)(=O)NCCSCc2ccccc2Cl)cc1 | inconclusive: -38.9% |
| CCn1c(CCn2ccnc2C)n[nH]c1=S | inconclusive: -45.2% |
| CNC(=O)CSc1nnc(-c2ccco2)n1-c1ccc(C)cc1 | inconclusive: -42.6% |
| Cc1c(C(=O)O)c(-c2ccccc2)nn1-c1ccccc1 | inconclusive: -48.3% |
| COc1ccc(C2C(C(=O)N3CCCCC3)CC(=O)N2c2ccc(OC)cc2)cc1 (stereo not given) | inactive: -13% |
| CCOc1ccccc1N1CCN(Cc2cccc(OC)c2OC)CC1 | inconclusive: -53.9% |
| CCC(=O)c1ccccc1OCCN1C(=O)NC(C)(C)C1=O | inconclusive: -68.3% |
| C=CCNC(=O)C1CC(=O)N(c2ccc(OCC(=O)NCc3ccccc3)cc2)C1 (stereo not given) | inconclusive: -74.9% |
| CCOC(=O)C1CCN(c2c(N(C)Cc3ccco3)c(=O)c2=O)CC1 | inconclusive: -58.4% |
| Cc1cc(SCC(=O)OCC(=O)NCc2ccc3c(c2)OCO3)c(C)cc1Br | inconclusive: -33.8% |
| CS(=O)(=O)c1ccc2nc(NC(=O)c3ccco3)sc2c1 | inconclusive: -34.3% |
| O=C(CCC(=O)NNC(=O)COc1ccccc1)NCc1ccccc1 | inconclusive: -43% |

6 compounds drawn at random from those above, as already listed:

| SMILES | activity change (PNC), negative = inhibition |
| --- | --- |
| CC(NC(=O)C(=O)NCCC1=CCCCC1)c1ccccc1 (stereo not given) | inactive: 49.4% |
| Cc1cc(C(C)(C)C)oc1C(=O)N(CC(=O)NC1CCCC1)Cc1ccccc1 | inconclusive: -49.4% |
| COc1ccc(-c2cn(-c3ccc(OC)cc3)c(=S)[nH]2)cc1 | inconclusive: -33.1% |
| COc1ccc(C2C(C(=O)N3CCCCC3)CC(=O)N2c2ccc(OC)cc2)cc1 (stereo not given) | inactive: -13% |
| C#CC(C)(CC)NC(=O)Cn1nnc(-c2ccc(S(C)(=O)=O)cc2)n1 (stereo not given) | inactive: 2.91% |
| CNC(=O)CSc1nnc(-c2ccco2)n1-c1ccc(C)cc1 | inconclusive: -42.6% |
